From article PMC4203685
Results are given in words; binding and its absence hold for the method and conditions named. In cells and extracts the contact can be indirect. Some entries that bind do so weakly or less than the wild type.

Sequences of proteins named here, by UniProt entry; tags and fusion partners are left off.
UniProt P17844: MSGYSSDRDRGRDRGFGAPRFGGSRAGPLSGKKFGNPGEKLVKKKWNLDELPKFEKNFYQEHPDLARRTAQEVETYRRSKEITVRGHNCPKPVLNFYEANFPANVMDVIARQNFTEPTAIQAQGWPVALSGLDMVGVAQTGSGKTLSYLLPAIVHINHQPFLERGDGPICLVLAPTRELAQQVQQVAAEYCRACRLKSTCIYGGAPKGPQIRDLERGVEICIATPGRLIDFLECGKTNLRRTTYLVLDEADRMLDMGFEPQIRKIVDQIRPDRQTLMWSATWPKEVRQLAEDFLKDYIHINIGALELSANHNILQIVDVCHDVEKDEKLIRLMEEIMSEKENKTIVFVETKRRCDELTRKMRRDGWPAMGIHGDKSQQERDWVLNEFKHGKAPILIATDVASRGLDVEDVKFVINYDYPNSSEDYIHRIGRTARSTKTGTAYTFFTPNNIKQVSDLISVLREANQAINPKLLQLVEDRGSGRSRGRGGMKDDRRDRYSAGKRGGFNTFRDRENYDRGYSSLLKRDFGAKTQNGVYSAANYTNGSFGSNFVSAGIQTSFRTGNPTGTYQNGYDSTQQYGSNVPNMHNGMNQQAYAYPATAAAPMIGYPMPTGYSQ

Biological target: T1, Drosha (human (endogenous in UCI-107 and SKOV3)) (UniProt Q9NRR4)
T1 sequence: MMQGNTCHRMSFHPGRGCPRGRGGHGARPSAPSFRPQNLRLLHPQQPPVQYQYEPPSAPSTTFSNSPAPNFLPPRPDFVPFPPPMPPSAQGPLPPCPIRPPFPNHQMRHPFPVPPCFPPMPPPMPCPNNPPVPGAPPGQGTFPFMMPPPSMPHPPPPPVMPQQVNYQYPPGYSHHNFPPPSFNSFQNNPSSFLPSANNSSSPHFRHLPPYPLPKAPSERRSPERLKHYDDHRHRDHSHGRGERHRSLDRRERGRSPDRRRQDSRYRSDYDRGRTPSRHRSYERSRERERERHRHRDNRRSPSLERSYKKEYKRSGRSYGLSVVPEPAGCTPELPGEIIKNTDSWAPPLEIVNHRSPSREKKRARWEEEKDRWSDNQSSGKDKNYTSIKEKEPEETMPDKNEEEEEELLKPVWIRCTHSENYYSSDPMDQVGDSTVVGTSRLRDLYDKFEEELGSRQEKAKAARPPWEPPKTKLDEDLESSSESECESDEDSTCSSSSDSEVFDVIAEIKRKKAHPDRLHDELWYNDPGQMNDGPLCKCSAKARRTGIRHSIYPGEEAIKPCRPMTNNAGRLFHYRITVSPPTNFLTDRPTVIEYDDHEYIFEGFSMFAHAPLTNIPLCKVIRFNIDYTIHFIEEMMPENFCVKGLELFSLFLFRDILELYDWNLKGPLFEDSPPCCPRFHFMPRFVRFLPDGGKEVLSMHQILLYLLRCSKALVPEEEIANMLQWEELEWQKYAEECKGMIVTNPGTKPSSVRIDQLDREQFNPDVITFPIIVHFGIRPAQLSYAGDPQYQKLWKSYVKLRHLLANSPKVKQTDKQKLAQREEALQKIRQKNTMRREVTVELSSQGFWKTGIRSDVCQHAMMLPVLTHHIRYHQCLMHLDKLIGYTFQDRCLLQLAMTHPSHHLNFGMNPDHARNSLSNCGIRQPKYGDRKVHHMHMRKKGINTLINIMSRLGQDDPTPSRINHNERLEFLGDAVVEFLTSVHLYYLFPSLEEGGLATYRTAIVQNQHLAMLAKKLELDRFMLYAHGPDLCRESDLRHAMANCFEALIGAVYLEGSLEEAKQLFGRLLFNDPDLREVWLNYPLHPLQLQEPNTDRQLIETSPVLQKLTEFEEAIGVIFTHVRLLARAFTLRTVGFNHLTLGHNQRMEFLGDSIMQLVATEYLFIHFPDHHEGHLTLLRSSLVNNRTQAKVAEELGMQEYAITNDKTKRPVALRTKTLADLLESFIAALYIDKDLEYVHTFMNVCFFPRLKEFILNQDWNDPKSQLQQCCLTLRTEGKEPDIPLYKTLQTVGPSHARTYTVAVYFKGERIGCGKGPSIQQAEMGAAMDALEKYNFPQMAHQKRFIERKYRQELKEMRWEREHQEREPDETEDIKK
Assay: co-IP; UCI-107 cells lysed in RIPA buffer with RNase and protease inhibitors; IP with antibodies to Drosha, DDX5 or p53 (IgG control) on TrueBlot beads, 2 hours at 4°C, three 15 minute washes with lysis buffer; Western blot; cells with or without radiation treatment

For “DEAD-box RNA helicase DDX5 (p68) (from UniProt P17844 1-614) (enzyme)”, the binding was “binds”.
